For one substance, binding results are on record in article PMC7863940.

Results are given in words; binding and its absence hold for the method and conditions named. Binding seen in cells or lysates may run through a third protein. A result given as binding can be weak or reduced; the word gives no strength. Sequences can lack the tags named with a protein.

This test has as its target T1, glucose transporter-4 (Glut4) (mouse (endogenous in 3T3L1)) (UniProt P14142).
T1 sequence: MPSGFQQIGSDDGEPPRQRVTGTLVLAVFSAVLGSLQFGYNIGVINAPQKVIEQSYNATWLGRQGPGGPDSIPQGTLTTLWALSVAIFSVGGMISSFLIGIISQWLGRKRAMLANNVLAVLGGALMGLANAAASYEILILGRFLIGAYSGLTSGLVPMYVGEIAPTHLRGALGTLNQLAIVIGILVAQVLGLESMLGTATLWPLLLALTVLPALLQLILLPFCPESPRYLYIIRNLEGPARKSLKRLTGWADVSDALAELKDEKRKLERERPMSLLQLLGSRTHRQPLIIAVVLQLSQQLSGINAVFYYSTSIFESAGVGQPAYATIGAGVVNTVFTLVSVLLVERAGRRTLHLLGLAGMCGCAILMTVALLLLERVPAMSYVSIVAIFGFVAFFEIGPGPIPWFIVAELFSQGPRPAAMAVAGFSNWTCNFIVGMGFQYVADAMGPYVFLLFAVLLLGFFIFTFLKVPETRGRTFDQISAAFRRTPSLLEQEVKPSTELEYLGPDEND
The experiment in a line: co-IP; 200 µL of 1 µg/µL 3T3-L1 lysate, precleared with Protein A/G agarose, rocked with 2 µg Glut4-agarose antibody overnight at 4 °C; western blot for sortilin and Glut4; control cells and cells over-expressing Sort^17b (48 h). For orientation: A western blot detects proteins with antibodies after separation by electrophoresis.

In the case of “sortilin variant with included exon 17b (Sort^17b) (mouse)”, the binding result is “binds”.
